# In the supplement of paper PMC8728848:
# The other results are listed elsewhere or left out.
# Legend:
# Test in all cases: glycan array binding signal (z-score within array); higher = stronger binding
# Settings in all cases: glycan notation: IUPAC condensed, linker removed
# [1] = biological target: Gal(b1-3)GlcNAc(b1-2)Man(a1-3)[Gal(b1-3)GlcNAc(b1-2)Man(a1-6)]Man(b1-4)GlcNAc(b1-4)GlcNAc
# Method in brief: (§1)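 The Consortium for Functional Glycomics database supplied 3228 glycan arrays, of which those lacking an available protein sequence were dropped. The binding signal, a within-array Z-score, was averaged across arrays of the same protein sequence and across linkers. Negative scores can be read as non-binding.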
# [2] = biological target: Gal(b1-3)GlcNAc(b1-2)Man(a1-3)[Gal(b1-3)GlcNAc(b1-2)Man(a1-6)]Man(b1-4)GlcNAc(b1-4)[Fuc(a1-6)]GlcNAc
# Method in brief: as §1
# [3] = biological target: Gal(b1-3)GlcNAc(b1-2)Man(a1-3)[GlcNAc(b1-4)][Gal(b1-3)GlcNAc(b1-2)Man(a1-6)]Man(b1-4)GlcNAc(b1-4)GlcNAc
# Method in brief: as §1
# [4] = biological target: Gal(b1-3)GlcNAc(b1-2)[Gal(b1-3)GlcNAc(b1-6)]Man(a1-6)[Gal(b1-3)GlcNAc(b1-2)Man(a1-3)]Man(b1-4)GlcNAc(b1-4)GlcNAc
# Method in brief: as §1
# [5] = biological target: Gal(b1-3)GlcNAc(b1-3)Gal(b1-3)GlcNAc
# Method in brief: as §1
# [6] = biological target: Gal(b1-3)GlcNAc(b1-3)Gal(b1-4)Glc
# Method in brief: as §1
# [7] = biological target: Gal(b1-3)GlcNAc(b1-3)Gal(b1-4)GlcNAc
# Method in brief: as §1
# [8] = biological target: Gal(b1-3)GlcNAc(b1-3)Gal(b1-4)GlcNAc(b1-2)Man(a1-3)[Gal(b1-3)GlcNAc(b1-3)Gal(b1-4)GlcNAc(b1-2)Man(a1-6)]Man(b1-4)GlcNAc(b1-4)GlcNAc
# Method in brief: as §1
# [9] = biological target: Gal(b1-3)GlcNAc(b1-3)Gal(b1-4)GlcNAc(b1-2)[Gal(b1-3)GlcNAc(b1-3)Gal(b1-4)GlcNAc(b1-6)]Man(a1-6)[Gal(b1-3)GlcNAc(b1-3)Gal(b1-4)GlcNAc(b1-2)Man(a1-3)]Man(b1-4)GlcNAc(b1-4)[Fuc(a1-6)]GlcNAc
# Method in brief: as §1
# [10] = biological target: Gal(b1-3)GlcNAc(b1-3)Gal(b1-4)GlcNAc(b1-3)Gal(b1-4)GlcNAc(b1-2)[Gal(b1-3)GlcNAc(b1-3)Gal(b1-4)GlcNAc(b1-3)Gal(b1-4)GlcNAc(b1-6)]Man(a1-6)[Gal(b1-3)GlcNAc(b1-3)Gal(b1-4)GlcNAc(b1-3)Gal(b1-4)GlcNAc(b1-2)Man(a1-3)]Man(b1-4)GlcNAc(b1-4)[Fuc(a1-6)]GlcNAc
# Method in brief: as §1
# [11] = biological target: Gal(b1-3)GlcNAc(b1-3)Gal(b1-4)GlcNAc(b1-6)[Gal(b1-3)GlcNAc(b1-3)]Gal(b1-4)Glc
# Method in brief: as §1
# [12] = biological target: Gal(b1-3)GlcNAc(b1-3)Gal(b1-4)[Fuc(a1-3)]GlcNAc
# Method in brief: as §1
# [13] = biological target: Gal(b1-3)GlcNAc(b1-3)Gal(b1-4)[Fuc(a1-3)]GlcNAc(b1-6)[Gal(b1-3)GlcNAc(b1-3)]Gal(b1-4)Glc
# Method in brief: as §1
# [14] = biological target: Gal(b1-3)GlcNAc(b1-3)GalNAc
# Method in brief: as §1
# [15] = biological target: Gal(b1-3)GlcNAc(b1-6)Gal(b1-4)GlcNAc
# Method in brief: as §1
# [16] = biological target: Gal(b1-3)GlcNAc(b1-6)GalNAc
# Method in brief: as §1
# [17] = biological target: Gal(b1-3)GlcNAc(b1-6)[Gal(b1-3)]GalNAc
# Method in brief: as §1
# Gal(b1-3)GlcNAc6S = biological target: Gal(b1-3)GlcNAc6S
# Method in brief: as §1
# [18] = biological target: Gal(b1-3)[Fuc(a1-4)]GlcNAc
# Method in brief: as §1
# [19] = biological target: Gal(b1-3)[Fuc(a1-4)]GlcNAc(b1-2)Man
# Method in brief: as §1
# [20] = biological target: Gal(b1-3)[Fuc(a1-4)]GlcNAc(b1-2)Man(a1-3)[Gal(b1-3)[Fuc(a1-4)]GlcNAc(b1-2)Man(a1-6)]Man(b1-4)GlcNAc(b1-4)[Fuc(a1-6)]GlcNAc
# Method in brief: as §1
# [21] = biological target: Gal(b1-3)[Fuc(a1-4)]GlcNAc(b1-3)Gal(b1-3)[Fuc(a1-4)]GlcNAc
# Method in brief: as §1
# [22] = biological target: Gal(b1-3)[Fuc(a1-4)]GlcNAc(b1-3)Gal(b1-4)[Fuc(a1-3)]GlcNAc
# Method in brief: as §1
# [23] = biological target: Gal(b1-3)[Fuc(a1-4)]GlcNAc(b1-6)GalNAc
# Method in brief: as §1
# [24] = biological target: Gal(b1-3)[GlcNAc(b1-6)]GalNAc
# Method in brief: as §1
# [25] = biological target: Gal(b1-3)[Neu5Ac(a2-6)]GalNAc
# Method in brief: as §1
# [26] = biological target: Gal(b1-3)[Neu5Ac(a2-6)]GlcNAc(b1-4)Gal(b1-4)Glc
# Method in brief: as §1
# [27] = biological target: Gal(b1-3)[Neu5Ac(b2-6)]GalNAc
# Method in brief: as §1
# Gal(b1-4)Gal = biological target: Gal(b1-4)Gal
# Method in brief: as §1
# [28] = biological target: Gal(b1-4)GalNAc(a1-3)[Fuc(a1-2)]Gal(b1-4)GlcNAc
# Method in brief: as §1
# [29] = biological target: Gal(b1-4)GalNAc(b1-3)[Fuc(a1-2)]Gal(b1-4)GlcNAc
# Method in brief: as §1
# Gal(b1-4)Glc = biological target: Gal(b1-4)Glc
# Method in brief: as §1
# Gal(b1-4)Glc6S = biological target: Gal(b1-4)Glc6S
# Method in brief: as §1
# Gal(b1-4)GlcNAc = biological target: Gal(b1-4)GlcNAc
# Method in brief: as §1
# [30] = biological target: Gal(b1-4)GlcNAc(a1-6)Gal(b1-4)GlcNAc
# Method in brief: as §1
# Gal(b1-4)GlcNAc(b1-2)Man = biological target: Gal(b1-4)GlcNAc(b1-2)Man
# Method in brief: as §1
# [31] = biological target: Gal(b1-4)GlcNAc(b1-2)Man(a1-3)Man(b1-4)GlcNAc(b1-4)GlcNAc
# Method in brief: as §1
# [32] = biological target: Gal(b1-4)GlcNAc(b1-2)Man(a1-3)[Gal(b1-4)GlcNAc(b1-2)Man(a1-6)]Man(b1-4)GlcNAc(b1-4)GlcNAc
# Method in brief: as §1
# [33] = biological target: Gal(b1-4)GlcNAc(b1-2)Man(a1-3)[Gal(b1-4)GlcNAc(b1-2)Man(a1-6)]Man(b1-4)GlcNAc(b1-4)[Fuc(a1-6)]GlcNAc
# Method in brief: as §1
# [34] = biological target: Gal(b1-4)GlcNAc(b1-2)Man(a1-3)[Gal(b1-4)GlcNAc(b1-2)Man(a1-6)][Gal(b1-4)GlcNAc(b1-4)]Man(b1-4)GlcNAc(b1-4)[Fuc(a1-6)]GlcNAc
# Method in brief: as §1
# [35] = biological target: Gal(b1-4)GlcNAc(b1-2)Man(a1-3)[Gal(b1-4)GlcNAc(b1-2)Man(a1-6)][GlcNAc(b1-4)]Man(b1-4)GlcNAc(b1-4)[Fuc(a1-6)]GlcNAc
# Method in brief: as §1
# [36] = biological target: Gal(b1-4)GlcNAc(b1-2)Man(a1-3)[GlcNAc(b1-2)Man(a1-6)]Man(b1-4)GlcNAc(b1-4)GlcNAc
# Method in brief: as §1
# [37] = biological target: Gal(b1-4)GlcNAc(b1-2)Man(a1-3)[GlcNAc(b1-4)][Gal(b1-4)GlcNAc(b1-2)Man(a1-6)]Man(b1-4)GlcNAc(b1-4)GlcNAc
# Method in brief: as §1
# [38] = biological target: Gal(b1-4)GlcNAc(b1-2)Man(a1-3)[Man(a1-6)]Man(b1-4)GlcNAc(b1-4)GlcNAc
# Method in brief: as §1
# [39] = biological target: Gal(b1-4)GlcNAc(b1-2)Man(a1-6)Man(b1-4)GlcNAc(b1-4)GlcNAc
# Method in brief: as §1
binder,measurement,setting,value
Drgal1 (Danio rerio) (protein) MAGVLIQNMSFKVGQTLTITGVPKPDSTNFAINIGHSPEDIALHMNPRFDAHGDQCTIVCNSFQSGSWCEEHRDDNFPFIQDKEFQIKITFTNEEFLVTLPDGSEIHFPNRQGSEKYKYMYFEGEVRIQGVEIK,glycan array binding signal (z-score),[1],0.307
same,glycan array binding signal (z-score),[2],0.812
same,glycan array binding signal (z-score),[3],0.809
same,glycan array binding signal (z-score),[4],-0.31
same,glycan array binding signal (z-score),[5],-0.171
same,glycan array binding signal (z-score),[6],0.615
same,glycan array binding signal (z-score),[7],-0.798
same,glycan array binding signal (z-score),[8],0.325
same,glycan array binding signal (z-score),[9],0.56
same,glycan array binding signal (z-score),[10],0.562
same,glycan array binding signal (z-score),[11],1.9
same,glycan array binding signal (z-score),[12],0.199
same,glycan array binding signal (z-score),[13],0.66
same,glycan array binding signal (z-score),[14],0.078
same,glycan array binding signal (z-score),[15],0.115
same,glycan array binding signal (z-score),[16],-0.544
same,glycan array binding signal (z-score),[17],-0.228
same,glycan array binding signal (z-score),Gal(b1-3)GlcNAc6S,-0.268
same,glycan array binding signal (z-score),[18],-0.253
same,glycan array binding signal (z-score),[19],0.89
same,glycan array binding signal (z-score),[20],0.201
same,glycan array binding signal (z-score),[21],-0.645
same,glycan array binding signal (z-score),[22],0.77
same,glycan array binding signal (z-score),[23],-0.443
same,glycan array binding signal (z-score),[24],0.255
same,glycan array binding signal (z-score),[25],-0.745
same,glycan array binding signal (z-score),[26],-0.395
same,glycan array binding signal (z-score),[27],-0.043
same,glycan array binding signal (z-score),Gal(b1-4)Gal,-0.066
same,glycan array binding signal (z-score),[28],0.068
same,glycan array binding signal (z-score),[29],-0.588
same,glycan array binding signal (z-score),Gal(b1-4)Glc,-0.435
same,glycan array binding signal (z-score),Gal(b1-4)Glc6S,-0.192
same,glycan array binding signal (z-score),Gal(b1-4)GlcNAc,-0.448
same,glycan array binding signal (z-score),[30],0.244
same,glycan array binding signal (z-score),Gal(b1-4)GlcNAc(b1-2)Man,0.071
same,glycan array binding signal (z-score),[31],0.231
same,glycan array binding signal (z-score),[32],0.021
same,glycan array binding signal (z-score),[33],0.385
same,glycan array binding signal (z-score),[34],-0.219
same,glycan array binding signal (z-score),[35],-0.087
same,glycan array binding signal (z-score),[36],-0.092
same,glycan array binding signal (z-score),[37],-0.088
same,glycan array binding signal (z-score),[38],0.544
same,glycan array binding signal (z-score),[39],-0.388

# A stretch from the list above, for reference:
binder,measurement,setting,value
Drgal1 (Danio rerio) (protein) MAGVLIQNMSFKVGQTLTITGVPKPDSTNFAINIGHSPEDIALHMNPRFDAHGDQCTIVCNSFQSGSWCEEHRDDNFPFIQDKEFQIKITFTNEEFLVTLPDGSEIHFPNRQGSEKYKYMYFEGEVRIQGVEIK,glycan array binding signal (z-score),[38],0.544
same,glycan array binding signal (z-score),[39],-0.388
